Assay results: US12612430 (dated 2026)

Experiment: general procedure: Fmoc solid-phase peptide synthesis; Fmoc-Lys-Boc-Wang resin (GL Biochem)
Settings: whole synthesis, scale of the general procedure 9.15 g resin, acetate (anion exchange with ammonium acetate/HAc)
[1] = HPLC, UV at 220 nm (Shimadzu LCMS-8050 / LC-20, ZORBAX Eclipse SB-C18)

| Substance | crude purity (method not given) [1] [%] | final HPLC purity [1] [%] | crude purity (method not given) (UV 220 nm) [%] |
| --- | --- | --- | --- |
| 3,4-dihydrocinnamic acid-Ala-Lys-Pro-Ser-Tyr-Hyp-Thr-Tyr-Hyp-Lys | 79.183 | – | – |
| AKPSY[Hyp]TY[Hyp]K | – | 98 | 77.256 |
| AKPSY[Hyp]T[Dopa][Hyp]K | 74.493 | – | – |
| AK[Hyp]SY[Hyp]T[Dopa][Hyp]K | 75.365 | – | – |

Square brackets hold non-standard residues; d marks the D form. Ends that are not written are not given here. Dopa = N[C@@H](Cc1ccc(O)c(O)c1)C(=O)O; Hyp = O=C(O)[C@@H]1C[C@@H](O)CN1
